According to patent US10072044B2, “Modified kisspeptin peptides and uses thereof” (Yeda Research and Development Co. Ltd., priority 2012, dated 2018):
Entries after “also recorded” stand apart in the source; their conditions may differ. At least one compound was matched to its structure with a doubt left.

Key:
C57Bl/6J naïve mice = test: Acoustic startle response / prepulse inhibition (PPI) in naïve mice; format: in vivo, mouse
Protocol: (§1) Acoustic startle response testing was performed within startle chambers purchased from Med Associates, Inc. (Med Associates, St. Albans, Vt., USA), as described in Cardon et al., 2010. During a period of acclimation, a 65-decibel (dB) background noise was presented for 5-min, and continued throughout the test session. All sessions for testing of acoustic startle response consisted of startle trials (pulse alone, 40-milliseconds (ms), 120-dB), prepulse trials (prepulse 20-ms, 69, 73, 78, or 81 dB followed by a [100-ms delay] pulse), and no-stimulus trials. All sessions were presented in pseudo-random order. The average time between trials was 15 seconds (range 12-30 seconds). Startle response was calculated from the reaction to the first pulse-alone trial.
(§2) PPI was calculated as: % PPI=100−{[(startle response for prepulse+pulse)/(startle response for pulse-alone)]×100}. Reduced PPI indicates schizophrenia-related behavior.
To test Peptide 2 (SEQ ID NO: 10), the peptide was dissolved in DMSO and then diluted in PBS to a final concentration of 1% (w/v) DMSO. Male C57Bl/6J naïve mice were injected intraperitoneally with 15 μg of the peptide or with 1% DMSO in PBS (control). Prepulse intensity analysis was performed after 30 minutes at 69, 73, 78 or 81 decibels. […]

[1] = tested on: MK-801 treated C57BL/6J mice; test: PPI in the MK-801 drug-induced model of schizophrenia; format: in vivo, mouse
Protocol: MK-801 (Sigma) was used at 0.1 mg/kg and administered 15 min prior to the PPI analysis.
as §1, §2
MK-801 (an antagonist of the N-methyl-D-aspartate (NMDA) receptor channel) acts as a psychomimetic agent, inducing psychotic symptoms that mimic the cognitive impairment and behavioral abnormalities associated with schizophrenia.
The neurotransmitter imbalance induced by MK-801 causes PPI dysfunction, one of the characteristic features of patients with schizophrenia. In an experiment depicted in FIG. 2, C57BL/6J mice were injected with Kp-10 (13 μg/mouse, light gray bars), or with Peptides 6 (8.75 μg/mouse, medium gray bars) or 8 (8.75 μg/mouse, dark gray bars) dissolved in DMSO and then diluted in PBS to a final concentration of 0.2% (w/v) DMSO; the control group received 0.2% DMSO in PBS (black bars). After 15 min, MK-801 (0.1 mg/kg) was injected; 15 min later, measurement of the PPI was performed.

naïve mice = test: Tail suspension test; format: in vivo, mouse
5×FAD transgenic mice = test: Morris water maze in Alzheimer mouse model; format: in vivo; settings: 8.75 μg/mouse i.p. 30 minutes before testing; acquisition and reversal phases
[2] = 8.75 μg/mouse, MK-801 0.1 mg/kg after 15 min, PPI 15 min later
[3] = 8.75 μg, compared with control and Clozapine 0.3 mg/kg

CC(C)C[C@@H]1NC(=O)CNC(=O)[C@H](Cc2ccccc2)NC(=O)[C@@H](N)Cc2ccc(cc2)N=Nc2cc(ccc2O)C[C@@H](C(N)=O)NC(=O)[C@H](Cc2c[nH]c3ccccc23)NC(=O)[C@H](CCCNC(=N)N)NC1=O [Peptide 6, Pap-Phe-Gly-Leu-Arg-Trp-Tyr-NH2]
% PPI relative to controls (C57Bl/6J naïve mice; 8.75 μg peptide i.p. in 1% DMSO in PBS, 30 min before test, prepulse 69, 73, 78 or 81 dB): strongly elevated the % PPI at all intensities relative to controls, and this effect was significant at 78 decibels; also recorded: significant increase in % PPI at all intensities
PPI after repeated injections (C57Bl/6J naïve mice; 0.29 mg/kg i.p. once a day during three days, PPI 30 min after third injection, 69, 73, 78 and 81 dB): increased the PPI at all intensities, the effect was significant at PPI of 69 and 73 decibels
PPI compared to MK-801 treated animals [1, 2]: significantly improved PPI compared to the MK-801 treated animals; also recorded: significantly improved PPI compared to animals treated only with MK-801
PPI compared to control without MK-801 (restoration to normal) [1, 2]: restored PPI back to normal levels
PPI in MK-801 treated mice ([1]; 0.29 mg/kg i.p. with MK-801 (FIG. 4B)): completely overcame the effect of MK-801 and restored the PPI levels to control level; also recorded: greater than that of known antipsychotic drugs
latency until the first occurrence of immobility (naïve mice; [3]): significantly increased latency until the first occurrence of immobility; also recorded: increased latency time until the first occurrence of immobility
total duration of immobility (naïve mice; [3]): significantly reduced the total duration of immobility
total immobility time, dose effect (naïve mice; 0.0029, 0.029, 0.29, 2.9 mg/kg injected): reduced the total immobility time in a dosage dependent manner; also recorded: reduced the total immobility time in the tail suspension test in a dose dependent manner
total immobility (naïve mice; 2.9 mg/kg by oral gavage, tested 30 min later): significantly reduced the total immobility relative to the control; also recorded: reduces total immobility
time to find the platform (spatial learning and memory) (5×FAD transgenic mice): took less time than untreated mice; also recorded: improves spatial learning and memory
